Numbering of substitutions follows the chain as printed. These are yes or no findings as the source states them, for the method shown. For some assays here: Binding seen in cells or lysates may run through a third protein. Some binding calls cover weakened binding; strength is not graded here. Where a sequence is shown, tags or fusion partners need not be part of it.

The chains behind the UniProt entries cited, without tags or fusion partners. Residues count along the entry.
UniProt P30101, residues 25-505: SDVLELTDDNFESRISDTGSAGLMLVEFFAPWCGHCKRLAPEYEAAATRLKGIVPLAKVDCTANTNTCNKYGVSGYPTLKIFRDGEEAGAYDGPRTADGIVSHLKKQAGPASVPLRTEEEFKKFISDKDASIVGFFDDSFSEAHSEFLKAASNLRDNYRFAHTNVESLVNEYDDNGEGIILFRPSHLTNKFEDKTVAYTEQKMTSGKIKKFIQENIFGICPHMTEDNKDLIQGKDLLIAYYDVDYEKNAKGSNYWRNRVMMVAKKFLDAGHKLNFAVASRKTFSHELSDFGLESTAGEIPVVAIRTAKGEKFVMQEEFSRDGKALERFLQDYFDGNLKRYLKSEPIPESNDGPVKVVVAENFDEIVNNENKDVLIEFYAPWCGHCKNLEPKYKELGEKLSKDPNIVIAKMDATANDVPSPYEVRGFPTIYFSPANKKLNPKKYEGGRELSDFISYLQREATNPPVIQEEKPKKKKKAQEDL
UniProt P11021, residues 19-654: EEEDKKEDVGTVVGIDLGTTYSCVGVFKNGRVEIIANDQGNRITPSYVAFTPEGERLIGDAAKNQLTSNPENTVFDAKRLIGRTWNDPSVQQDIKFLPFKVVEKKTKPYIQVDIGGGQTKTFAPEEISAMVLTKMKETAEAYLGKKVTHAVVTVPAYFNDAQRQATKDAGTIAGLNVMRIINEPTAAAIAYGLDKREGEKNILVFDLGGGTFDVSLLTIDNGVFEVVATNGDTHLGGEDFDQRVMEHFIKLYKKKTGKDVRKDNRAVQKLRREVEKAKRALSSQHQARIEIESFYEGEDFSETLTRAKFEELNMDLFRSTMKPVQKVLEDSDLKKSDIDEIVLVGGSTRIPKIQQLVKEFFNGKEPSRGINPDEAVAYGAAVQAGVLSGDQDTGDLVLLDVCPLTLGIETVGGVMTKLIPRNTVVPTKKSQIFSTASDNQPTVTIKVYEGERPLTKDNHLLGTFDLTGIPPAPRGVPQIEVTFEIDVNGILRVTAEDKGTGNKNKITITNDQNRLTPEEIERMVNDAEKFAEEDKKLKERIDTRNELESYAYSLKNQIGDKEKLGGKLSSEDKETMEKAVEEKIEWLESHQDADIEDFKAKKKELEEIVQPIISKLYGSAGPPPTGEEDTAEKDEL
UniProt P07237, residues 18-508: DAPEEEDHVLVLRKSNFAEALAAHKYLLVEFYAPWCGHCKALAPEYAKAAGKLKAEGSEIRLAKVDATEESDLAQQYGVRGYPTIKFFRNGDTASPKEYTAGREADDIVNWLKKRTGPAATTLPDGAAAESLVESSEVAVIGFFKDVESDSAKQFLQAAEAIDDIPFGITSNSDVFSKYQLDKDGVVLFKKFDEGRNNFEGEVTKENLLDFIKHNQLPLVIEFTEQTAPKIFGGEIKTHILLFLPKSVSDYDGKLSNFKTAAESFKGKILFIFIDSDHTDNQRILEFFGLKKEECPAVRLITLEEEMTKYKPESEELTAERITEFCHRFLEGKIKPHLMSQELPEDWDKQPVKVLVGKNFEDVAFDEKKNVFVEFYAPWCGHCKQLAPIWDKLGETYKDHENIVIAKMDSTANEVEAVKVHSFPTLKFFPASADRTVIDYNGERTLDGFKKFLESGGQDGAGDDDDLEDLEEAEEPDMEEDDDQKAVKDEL

In assay [1] the target is T1, Flag-tagged UGT2B17 mutant UGTm (S121Y, N124S, I125N), expressed in cells (UniProt O75795).
T1 sequence: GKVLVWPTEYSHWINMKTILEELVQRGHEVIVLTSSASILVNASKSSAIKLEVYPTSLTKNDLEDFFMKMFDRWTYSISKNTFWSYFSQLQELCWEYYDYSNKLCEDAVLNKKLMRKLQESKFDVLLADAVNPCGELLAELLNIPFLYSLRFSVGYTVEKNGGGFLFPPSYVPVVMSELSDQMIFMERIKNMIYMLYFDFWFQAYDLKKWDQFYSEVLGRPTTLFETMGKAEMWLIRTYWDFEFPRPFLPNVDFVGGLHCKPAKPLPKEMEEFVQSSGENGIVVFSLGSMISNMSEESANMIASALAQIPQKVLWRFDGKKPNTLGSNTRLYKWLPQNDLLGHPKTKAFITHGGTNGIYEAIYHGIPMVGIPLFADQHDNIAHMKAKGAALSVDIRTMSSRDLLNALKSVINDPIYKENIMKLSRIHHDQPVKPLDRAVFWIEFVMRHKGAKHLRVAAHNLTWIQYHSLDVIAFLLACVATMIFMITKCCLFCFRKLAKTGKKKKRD
Nature of the assay: co-IP; Figure 2C: Flag-tagged UGT2B17 or UGTm with proteins identified by MS; NETN buffer (1% NP-40, 1 mM EDTA, 50 mM Tris, 150 mM NaCl); immunoblot. (In western blotting, separated proteins are transferred to a membrane and probed.)

Assay [2] has as its target T2, Flag-tagged UGT2B17 (UDP glucuronosyltransferase family 2 member B17), full length, expressed in prostate cancer cells (UniProt O75795).
T2 sequence: T1 sequence with Y98S, S101N, N102I
Described as above.

For assay [3], the target named is T3, Purified Flag-tagged UGTm (UGT2B17 S121Y, N124S, I125N) (UniProt O75795).
T3 sequence: T1 sequence
Nature of the assay: pull-down; protein pulldown assays of UGT2B17 or UGTm with PDIA3 and PDIA1, called direct (Supplemental Figure 6, D and E); both purified.

Assay [4] addresses T4, Purified Flag-tagged UGT2B17 (UniProt O75795).
T4 sequence: T1 sequence with Y98S, S101N, N102I
The assay is described as above.

Assay [5] has as its target T1, Flag-tagged UGT2B17 mutant UGTm (S121Y, N124S, I125N), expressed in cells. Nature of the assay: co-IP; Figure 5G: LN95(KO) cells transfected with control, UGT2B17 or UGTm; co-IP of Flag-tag UGT2B17 and UGTm with PTPN1 and Src, immunoblot.
Assay [6] deals with T2, Flag-tagged UGT2B17 (UDP glucuronosyltransferase family 2 member B17), full length, expressed in prostate cancer cells. Described as above.

For “PDIA3 (also known as ERP57), endogenous (from UniProt P30101 25-505)”, the binding entry in assay [1] and in assay [2] was “binds” in each case.

As for BiP (from UniProt P11021 19-654), the binding entry in assay [1] and in assay [2] was “binds” throughout.

“PDIA3 of the protein pulldown assay (from UniProt P30101 25-505)”: the binding entry in assay [3] and in assay [4] was “binds” each time.

For “PDIA1 of the protein pulldown assay and the in vitro PDI activity assay (from UniProt P07237 18-508) (enzyme)”, the binding entry in assay [3] and in assay [4] was “binds” in each case.

B1: ERP44 (protein, UniProt Q9BS26 30-406)
chain: EITSLDTENIDEILNNADVALVNFYADWCRFSQMLHPIFEEASDVIKEEFPNENQVVFARVDCDQHSDIAQRYRISKYPTLKLFRNGMMMKREYRGQRSVKALADYIRQQKSDPIQEIRDLAEITTLDRSKRNIIGYFEQKDSDNYRVFERVANILHDDCAFLSAFGDVSKPERYSGDNIIYKPPGHSAPDMVYLGAMTNFDVTYNWIQDKCVPLVREITFENGEELTEEGLPFLILFHMKEDTESLEIFQNEVARQLISEKGTINFLHADCDKFRHPLLHIQKTPADCPVIAIDSFRHMYVFGDFKDVLIPGKLKQFVFDLHSGKLHREFHHGPDPTDTAPGEQAQDVASSPPESSFQKLAPSEYRYTLLRDRDEL
Consider B1, for which the binding entry in assay [1] and in assay [2] was “binds” each time.

B2: GANAB (protein, UniProt Q14697 29-944)
chain: ITLAVDRSNFKTCEESSFCKRQRSIRPGLSPYRALLDSLQLGPDSLTVHLIHEVTKVLLVLELQGLQKNMTRFRIDELEPRRPRYRVPDVLVADPPIARLSVSGRDENSVELTMAEGPYKIILTARPFRLDLLEDRSLLLSVNARGLLEFEHQRAPRVSQGSKDPAEGDGAQPEETPRDGDKPEETQGKAEKDEPGAWEETFKTHSDSKPYGPMSVGLDFSLPGMEHVYGIPEHADNLRLKVTEGGEPYRLYNLDVFQYELYNPMALYGSVPVLLAHNPHRDLGIFWLNAAETWVDISSNTAGKTLFGKMMDYLQGSGETPQTDVRWMSETGIIDVFLLLGPSISDVFRQYASLTGTQALPPLFSLGYHQSRWNYRDEADVLEVDQGFDDHNLPCDVIWLDIEHADGKRYFTWDPSRFPQPRTMLERLASKRRKLVAIVDPHIKVDSGYRVHEELRNLGLYVKTRDGSDYEGWCWPGSAGYPDFTNPTMRAWWANMFSYDNYEGSAPNLFVWNDMNEPSVFNGPEVTMLKDAQHYGGWEHRDVHNIYGLYVHMATADGLRQRSGGMERPFVLARAFFAGSQRFGAVWTGDNTAEWDHLKISIPMCLSLGLVGLSFCGADVGGFFKNPEPELLVRWYQMGAYQPFFRAHAHLDTGRREPWLLPSQHNDIIRDALGQRYSLLPFWYTLLYQAHREGIPVMRPLWVQYPQDVTTFNIDDQYLLGDALLVHPVSDSGAHGVQVYLPGQGEVWYDIQSYQKHHGPQTLYLPVTLSSIPVFQRGGTIVPRWMRVRRSSECMKDDPITLFVALSPQGTAQGELFLDDGHTFNYQTRQEFLLRRFSFSGNTLVSSSADPEGHFETPIWIERVVIIGAGKPAAVVLQTKGSPESRLSFQHDPETSVLVLRKPGINVASDWSIHLR
Turning to B2, the binding result in assay [1] and in assay [2] was “binds” in each case.

B3: PTPN1, endogenous (enzyme, UniProt P18031 1-435)
chain: MEMEKEFEQIDKSGSWAAIYQDIRHEASDFPCRVAKLPKNKNRNRYRDVSPFDHSRIKLHQEDNDYINASLIKMEEAQRSYILTQGPLPNTCGHFWEMVWEQKSRGVVMLNRVMEKGSLKCAQYWPQKEEKEMIFEDTNLKLTLISEDIKSYYTVRQLELENLTTQETREILHFHYTTWPDFGVPESPASFLNFLFKVRESGSLSPEHGPVVVHCSAGIGRSGTFCLADTCLLLMDKRKDPSSVDIKKVLLEMRKFRMGLIQTADQLRFSYLAVIEGAKFIMGDSSVQDQWKELSHEDLEPPPEHIPPPPRPPKRILEPHNGKCREFFPNHQWVKEETQEDKDCPIKEEKGSPLNAAPYGIESMSQDTEVRSRVVGGSLRGAQAASPAKGEPSLPEKDEDHALSYWKPFLVNMCVATVLTAGAYLCYRFLFNSNT
For B3, the binding result in assay [5] and in assay [6] was “binds” in each case.

Source of the values: publication PMC12807465.
